According to article PMC4673135:
No constants are given. Whether binding was seen depends on the method and setting. Binding seen in cells or lysates may run through a third protein. Some results given as binding are weak or reduced against the parent protein; the word gives no strength.

By UniProt entry, the sequences of proteins in these tests, tags left out. Where a name states a change or a piece, a line headed by the entry shows the natural chain unless it says otherwise. Chains listed by the source or under a name are the forms on record and can include a tag or linker.
UniProt Q9Y297: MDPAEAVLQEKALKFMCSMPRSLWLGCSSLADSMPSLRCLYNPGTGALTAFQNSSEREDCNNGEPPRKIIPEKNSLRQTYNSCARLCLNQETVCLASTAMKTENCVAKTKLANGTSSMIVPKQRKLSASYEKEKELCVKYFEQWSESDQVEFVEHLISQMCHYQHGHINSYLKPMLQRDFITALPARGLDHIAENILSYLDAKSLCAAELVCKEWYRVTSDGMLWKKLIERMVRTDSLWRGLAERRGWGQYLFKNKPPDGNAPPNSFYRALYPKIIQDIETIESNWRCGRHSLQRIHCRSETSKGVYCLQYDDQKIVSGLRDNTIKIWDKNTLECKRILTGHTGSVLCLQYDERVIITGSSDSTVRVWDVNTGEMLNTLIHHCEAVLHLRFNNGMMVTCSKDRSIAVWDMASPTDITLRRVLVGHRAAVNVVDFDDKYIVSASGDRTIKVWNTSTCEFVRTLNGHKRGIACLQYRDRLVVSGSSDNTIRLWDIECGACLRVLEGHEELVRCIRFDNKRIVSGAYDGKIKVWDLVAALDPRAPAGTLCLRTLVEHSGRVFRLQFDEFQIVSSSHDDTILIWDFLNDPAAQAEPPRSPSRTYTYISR
UniProt Q9GZV5: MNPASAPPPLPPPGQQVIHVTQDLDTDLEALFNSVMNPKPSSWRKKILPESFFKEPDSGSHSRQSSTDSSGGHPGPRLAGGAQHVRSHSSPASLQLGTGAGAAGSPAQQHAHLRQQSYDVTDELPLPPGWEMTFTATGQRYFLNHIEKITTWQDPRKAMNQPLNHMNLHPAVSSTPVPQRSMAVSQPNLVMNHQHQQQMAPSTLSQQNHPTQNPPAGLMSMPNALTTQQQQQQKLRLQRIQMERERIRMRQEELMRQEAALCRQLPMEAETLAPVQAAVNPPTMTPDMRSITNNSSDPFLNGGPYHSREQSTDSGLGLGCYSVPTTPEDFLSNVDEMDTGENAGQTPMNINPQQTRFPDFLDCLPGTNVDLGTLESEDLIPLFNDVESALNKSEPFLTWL
TAZ6D-HA (phosphorylation mimicking mutant, all six Cdk1 sites to aspartic acid) (Q9GZV5, form named): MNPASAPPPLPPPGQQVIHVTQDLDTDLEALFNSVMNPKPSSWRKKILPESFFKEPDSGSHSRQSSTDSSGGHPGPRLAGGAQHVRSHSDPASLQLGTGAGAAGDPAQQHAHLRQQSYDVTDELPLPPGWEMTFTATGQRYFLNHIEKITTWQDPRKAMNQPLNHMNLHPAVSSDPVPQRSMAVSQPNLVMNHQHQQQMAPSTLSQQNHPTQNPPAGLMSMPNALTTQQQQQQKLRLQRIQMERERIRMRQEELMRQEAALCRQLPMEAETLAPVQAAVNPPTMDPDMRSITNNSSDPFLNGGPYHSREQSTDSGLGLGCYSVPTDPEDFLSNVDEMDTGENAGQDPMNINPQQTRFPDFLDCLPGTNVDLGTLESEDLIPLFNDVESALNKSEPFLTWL
TAZ3D-HA (phosphorylation mimicking mutant, S90/S105/T285 to aspartic acid) (Q9GZV5, form named): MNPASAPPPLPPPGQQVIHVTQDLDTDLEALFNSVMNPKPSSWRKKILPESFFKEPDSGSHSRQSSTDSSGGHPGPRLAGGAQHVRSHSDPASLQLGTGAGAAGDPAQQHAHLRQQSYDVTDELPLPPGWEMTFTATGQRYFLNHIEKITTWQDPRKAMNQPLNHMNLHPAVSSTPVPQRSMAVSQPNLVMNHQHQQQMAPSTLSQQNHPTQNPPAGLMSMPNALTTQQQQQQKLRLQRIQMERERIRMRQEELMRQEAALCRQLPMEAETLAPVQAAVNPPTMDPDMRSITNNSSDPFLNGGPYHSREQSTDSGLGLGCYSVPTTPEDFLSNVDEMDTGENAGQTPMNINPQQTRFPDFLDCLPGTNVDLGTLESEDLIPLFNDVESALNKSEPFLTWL

biological target: β-TRCP-Flag (UniProt Q9Y297); experiment: co-IP; HA-tagged TAZ or its mutant transfected alone or together with β-TRCP-Flag into HeLa cells; MG132 for 8 hours before protein extraction; immunoprecipitation with Flag (M2) antibody, TAZ detected by HA antibody

binding | Substance
binds | TAZ6D-HA (phosphorylation mimicking mutant, all six Cdk1 sites to aspartic acid) (from UniProt Q9GZV5 1-400)
binds | TAZ3D-HA (phosphorylation mimicking mutant, S90/S105/T285 to aspartic acid) (from UniProt Q9GZV5 1-400)
binds | TAZ-HA (wild-type TAZ, Transcriptional co-activator with PDZ binding motif) (from UniProt Q9GZV5 1-400)
